Record: PubChem BioAssay AID1259405 (NCATS, 2018)
Shown is one part, drawn at random, of about 50,000 reagents. About 4,000 of all reagents (8%) count as active. 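Mouse siRNA library applied to hamster cells; one well for each siRNA.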 Not all columns of the deposit are shown.

Purpose: 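Mouse-designed siRNAs used to find CHO productivity engineering targets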 (primary screen)
Cells: Chinese hamster CHO-K1 ovary cells with stable secreted eGFP expression
Reagents: single siRNA against mouse genes, 0.8 pmol siRNA per well (2 µl of 400 nM stock)
Time to read-out: 3 days
Detection: 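Per-well intracellular GFP measured by laser scanning cytometry, plus viability from ATP luminescence, each relative to plate median of non-targeting control wells, in %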
Reading the numbers: GFP, % of control: higher = more GFP per well, higher productivity
Rule for the call: 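a knock-down is called active if GFP reaches 120% or more of non-targeting control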

GFP, % of control, by gene and reagent
Apaf1 (GeneID 11783): SID363546750 94.3 inactive; SID363548506 86.3 inactive; SID363560684 73 inactive
Pabpn1l (GeneID 382035): SID363545952 196 active; SID363549465 41.9 inactive; SID363563271 21.6 inactive
Tmem106c (GeneID 380967): SID363539712 81.3 inactive; SID363561013 52.5 inactive; SID363565103 71.6 inactive
Foxb1 (GeneID 64290): SID363573493 102 inactive; SID363588732 110 inactive
Ccnc (GeneID 51813): SID363547432 119 inactive; SID363558201 124 active; SID363559959 81.9 inactive
Med7 (GeneID 66213): SID363550126 46.8 inactive; SID363564635 64.2 inactive; SID363588180 94.4 inactive
Trappc13 (GeneID 66975): SID363543903 75.2 inactive; SID363551639 63.5 inactive; SID363559244 89.4 inactive
Krtap4-7 (GeneID 76444): SID363541025 70.8 inactive; SID363555652 73.8 inactive; SID363565941 101 inactive
Sytl4 (GeneID 27359): SID363582565 89 inactive; SID363584325 93.5 inactive
Rorc (GeneID 19885): SID363544969 36.3 inactive; SID363551297 75.9 inactive; SID363557846 41.9 inactive
Plscr3 (GeneID 70310): SID363569869 87.6 inactive; SID363576909 136 active; SID363578317 73.3 inactive
Dmpk (GeneID 13400): SID363570940 53.9 inactive
Tmem242 (GeneID 70544): SID363552447 82.7 inactive; SID363585583 70.7 inactive; SID363585934 59.3 inactive
Myo9b (GeneID 17925): SID363572224 74.6 inactive; SID363573984 50.5 inactive
Arid5a (GeneID 214855): SID363546831 33.3 inactive; SID363548587 53.5 inactive; SID363560765 61.8 inactive
Rnf168 (GeneID 70238): SID363543784 91.4 inactive; SID363551520 78.9 inactive; SID363559125 93.2 inactive
Or1e1f (GeneID 258343): SID363554284 83.9 inactive; SID363567731 76.7 inactive; SID363585088 89.5 inactive
Etv5 (GeneID 104156): SID363573408 64 inactive; SID363588647 99.9 inactive
Doc2g (GeneID 60425): SID363539543 52.1 inactive; SID363560844 136 active; SID363564934 40 inactive
Repin1 (GeneID 58887): SID363540961 42.3 inactive; SID363555588 73.8 inactive; SID363565877 65.5 inactive
Phf12 (GeneID 268448): SID363547503 126 active; SID363558272 107 inactive; SID363560030 202 active
Nkx2-9 (GeneID 18094): SID363568967 67.5 inactive; SID363583399 66.7 inactive
Sphk2 (GeneID 56632): SID363570825 60.8 inactive
Dnajc5b (GeneID 66326): SID363572541 130 active; SID363577821 95.8 inactive; SID363582045 121 active
Ugt1a6b (GeneID 394435): SID363570633 65.7 inactive; SID363579433 219 active; SID363583305 78.7 inactive
Krt35 (GeneID 53617): SID363572136 95.9 inactive; SID363573896 113 inactive
Lman2l (GeneID 214895): SID363553599 69.6 inactive; SID363561556 70.1 inactive; SID363565294 74.3 inactive
Zfp954 (GeneID 232853): SID363555284 127 active; SID363563945 60 inactive; SID363587491 121 active
Serpina3h (GeneID 546546): SID363555333 90.1 inactive; SID363563994 52.7 inactive; SID363587540 76.9 inactive
Or8g32 (GeneID 258046): SID363554799 68.5 inactive; SID363568246 92.8 inactive; SID363586305 81.6 inactive
Laptm5 (GeneID 16792): SID363547800 92.7 inactive; SID363558569 111 inactive; SID363560327 102 inactive
4930432E11Rik (GeneID 243900): SID363542409 118 inactive; SID363551900 92.5 inactive; SID363559505 66 inactive

9 consecutive records from above, for reference:
GFP, % of control, by gene and reagent
Sytl4 (GeneID 27359): SID363584325 93.5 inactive
Rorc (GeneID 19885): SID363544969 36.3 inactive; SID363551297 75.9 inactive; SID363557846 41.9 inactive
Plscr3 (GeneID 70310): SID363569869 87.6 inactive; SID363576909 136 active; SID363578317 73.3 inactive
Dmpk (GeneID 13400): SID363570940 53.9 inactive
Tmem242 (GeneID 70544): SID363552447 82.7 inactive
